Not every detail of the peptide structures is certain; ends, links or a residue may be inferred. Square brackets hold non-standard residues; d marks the D form. Peptide text beside a SMILES is read from it. * marks the point of attachment. Sta = CC(C)C[C@H](N)[C@@H](O)CC(=O)O; d(hPhe) = N[C@H](CCc1ccccc1)C(=O)O; hhPhe = N[C@@H](CCCc1ccccc1)C(=O)O; hPhe = N[C@@H](CCc1ccccc1)C(=O)O; Isovaleryl = CC(C)CC(=O)*
Assays:
renin = test: Renin inhibition, D- versus L-HomoPhe diastereomer; assay type: biochemical; details: D-HomoPhe versus L-HomoPhe diastereomer of Example 1
hog kidney renin = test: Inhibition of hog kidney renin; assay type: biochemical; details: pH 7.3, read-out: Hog Kidney I50

Compound	times less active than the L diastereomer for renin inhibition (renin)	IC50 (hog kidney renin)
CC(C)CC(=O)N[C@@H](Cc1c[nH]cn1)C(=O)N1CCC[C@H]1C(=O)N[C@H](CCc1ccccc1)C(=O)N[C@@H](Cc1c[nH]cn1)C(=O)N[C@@H](CC(C)C)[C@@H](O)CC(=O)N[C@@H](CC(C)C)C(=O)N[C@@H](Cc1ccccc1)C(N)=O (single isomer, unassigned) [isomer B] (Isovaleryl-HP[d(hPhe)]H[Sta]LF-NH2)	100-1000 times	
CC(C)CC(=O)N[C@@H](Cc1c[nH]cn1)C(=O)N1CCC[C@H]1C(=O)N[C@@H](CCCc1ccccc1)C(=O)N[C@@H](Cc1c[nH]cn1)C(=O)N[C@@H](CC(C)C)[C@@H](O)CC(=O)N[C@@H](CC(C)C)C(=O)N[C@@H](Cc1ccccc1)C(N)=O [N^α -Isovaleryl-L-Histidyl-L-Prolyl-L-Bishomophenylalanyl-L-Histidyl-(3S,4S)-Statyl-L-Leucyl-L-Phenylalanyl Amide] (Isovaleryl-HP[hhPhe]H[Sta]LF-NH2)		130 nM
CC(C)CC(=O)N[C@@H](Cc1c[nH]cn1)C(=O)N1CCC[C@H]1C(=O)N[C@@H](CCc1ccccc1)C(=O)N[C@@H](Cc1c[nH]cn1)C(=O)N[C@@H](CC(C)C)[C@@H](O)CC(=O)N[C@@H](CC(C)C)C(=O)N[C@@H](Cc1ccccc1)C(N)=O [N^α -Isovaleryl-L-Histidyl-L-Prolyl-L-Homophenylalanyl-L-Histidyl-(3S,4S)-Statyl-L-Leucyl-L-Phenylalanyl Amide] (Isovaleryl-HP[hPhe]H[Sta]LF-NH2)		19 nM

From patent publication US4668663A, “Renin inhibitors containing homophe^8” (Merck & Co., Inc., priority 1984, dated 1987)
